This is one part of the list.
Tests used:
Test in all cases: log2 fold change, soluble protein after heating vs DMSO (PISA); higher = thermal stabilisation; K562 cells, 10 uM, 30 min; active = over 0.2 and 3.5 SD of the protein, either way, in both replicates (recomputed)
[1] = compound: CC[C@@H]1C(=O)N(C)c2cnc(Nc3ccc(C(=O)NC4CCN(C)CC4)cc3OC)nc2N1C1CCCC1
In short: (§1)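 Soluble protein was quantified by TMTpro 16plex LC-MS/MS after channel sums were equalised. It was obtained as the supernatant after 21,000xg for 90 min from pooled aliquots of K562 cells (2×10^6 cells/mL, 10 μM compound, 30 min) heated for 3 min across 48°C-58°C and extracted in PBS with 0.5% NP-40 at 4°C. Thermal stability values are relative to control samples and come from duplicates. They are given as log2 fold changes.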

Sequences of proteins named here, by UniProt entry; tags and fusion partners are left off. A change or cut given only in a name is not applied to a line headed by its entry.
UniProt Q9H7C9: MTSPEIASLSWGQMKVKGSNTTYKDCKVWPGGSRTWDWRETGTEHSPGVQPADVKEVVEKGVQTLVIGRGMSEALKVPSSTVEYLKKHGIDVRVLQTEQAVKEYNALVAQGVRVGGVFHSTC
UniProt Q9NPJ3: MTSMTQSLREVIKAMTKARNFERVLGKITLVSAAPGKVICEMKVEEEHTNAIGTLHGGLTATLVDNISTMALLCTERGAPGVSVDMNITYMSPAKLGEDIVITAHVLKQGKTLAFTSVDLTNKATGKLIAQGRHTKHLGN
UniProt P07311: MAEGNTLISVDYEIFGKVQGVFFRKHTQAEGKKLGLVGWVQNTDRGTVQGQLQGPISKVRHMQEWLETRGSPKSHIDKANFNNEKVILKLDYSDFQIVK
UniProt P28288: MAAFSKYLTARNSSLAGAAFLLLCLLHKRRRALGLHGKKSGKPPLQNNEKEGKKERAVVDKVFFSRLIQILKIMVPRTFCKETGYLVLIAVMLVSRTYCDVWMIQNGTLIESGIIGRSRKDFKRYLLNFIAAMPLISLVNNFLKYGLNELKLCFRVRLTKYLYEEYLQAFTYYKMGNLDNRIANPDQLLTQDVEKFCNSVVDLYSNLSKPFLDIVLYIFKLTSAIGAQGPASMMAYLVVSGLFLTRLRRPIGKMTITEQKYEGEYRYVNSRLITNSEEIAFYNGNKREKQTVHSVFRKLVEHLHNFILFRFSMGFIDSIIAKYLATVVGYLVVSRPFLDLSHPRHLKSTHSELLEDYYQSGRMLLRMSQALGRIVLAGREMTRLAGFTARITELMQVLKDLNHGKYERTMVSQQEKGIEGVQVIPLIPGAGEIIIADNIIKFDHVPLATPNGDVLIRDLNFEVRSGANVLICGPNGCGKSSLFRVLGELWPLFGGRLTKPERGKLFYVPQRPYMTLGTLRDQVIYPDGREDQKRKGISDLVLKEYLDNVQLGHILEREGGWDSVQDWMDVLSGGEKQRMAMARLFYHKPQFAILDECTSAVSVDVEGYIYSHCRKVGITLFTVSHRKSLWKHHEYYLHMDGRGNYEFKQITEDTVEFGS
UniProt Q53FZ2: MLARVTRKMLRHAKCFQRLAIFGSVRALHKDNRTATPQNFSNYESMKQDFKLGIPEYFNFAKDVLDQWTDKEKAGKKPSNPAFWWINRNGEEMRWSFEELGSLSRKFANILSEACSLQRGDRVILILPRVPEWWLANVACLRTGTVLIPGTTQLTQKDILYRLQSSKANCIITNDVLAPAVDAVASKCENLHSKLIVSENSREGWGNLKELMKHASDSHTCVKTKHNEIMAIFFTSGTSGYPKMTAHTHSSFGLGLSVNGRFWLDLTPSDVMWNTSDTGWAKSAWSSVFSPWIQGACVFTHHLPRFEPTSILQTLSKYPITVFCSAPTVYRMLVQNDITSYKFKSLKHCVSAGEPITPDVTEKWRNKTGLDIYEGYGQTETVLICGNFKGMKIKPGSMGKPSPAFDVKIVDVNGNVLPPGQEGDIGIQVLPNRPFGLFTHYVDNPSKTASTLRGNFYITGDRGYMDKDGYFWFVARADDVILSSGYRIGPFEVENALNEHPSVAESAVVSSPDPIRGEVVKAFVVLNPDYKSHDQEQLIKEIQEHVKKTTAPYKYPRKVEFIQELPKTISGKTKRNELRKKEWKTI
UniProt O60488: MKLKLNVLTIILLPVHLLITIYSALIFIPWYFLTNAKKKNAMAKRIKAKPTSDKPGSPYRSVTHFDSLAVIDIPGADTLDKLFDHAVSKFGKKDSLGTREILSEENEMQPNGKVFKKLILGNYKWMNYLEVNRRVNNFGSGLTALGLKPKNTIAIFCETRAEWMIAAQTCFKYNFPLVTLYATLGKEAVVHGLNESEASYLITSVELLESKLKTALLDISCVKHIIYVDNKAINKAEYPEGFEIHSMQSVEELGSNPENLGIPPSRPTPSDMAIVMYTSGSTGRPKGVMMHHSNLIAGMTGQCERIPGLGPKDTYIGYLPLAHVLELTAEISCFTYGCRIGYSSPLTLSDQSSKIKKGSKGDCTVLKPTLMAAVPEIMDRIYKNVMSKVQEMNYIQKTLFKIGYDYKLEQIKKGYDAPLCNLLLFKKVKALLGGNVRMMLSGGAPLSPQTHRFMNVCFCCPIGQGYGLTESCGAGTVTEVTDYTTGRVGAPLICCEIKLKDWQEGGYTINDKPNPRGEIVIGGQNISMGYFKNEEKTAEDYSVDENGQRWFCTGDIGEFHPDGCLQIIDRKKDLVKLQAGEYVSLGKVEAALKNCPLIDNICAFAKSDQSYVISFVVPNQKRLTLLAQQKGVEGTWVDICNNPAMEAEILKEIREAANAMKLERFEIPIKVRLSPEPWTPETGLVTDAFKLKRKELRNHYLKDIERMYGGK
UniProt Q9NX38: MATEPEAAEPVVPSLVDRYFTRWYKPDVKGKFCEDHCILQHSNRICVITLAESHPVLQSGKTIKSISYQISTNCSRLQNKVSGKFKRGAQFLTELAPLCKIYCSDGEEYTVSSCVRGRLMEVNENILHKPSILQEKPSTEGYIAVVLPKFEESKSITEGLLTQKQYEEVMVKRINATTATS

[2] = compound: CC[C@@H]1C(=O)N(C)c2cnc(Nc3ccc(C(=O)N[C@H]4CC[C@H](N5CCN(CC6CC6)CC5)CC4)cc3OC)nc2N1C(C)C [volasertib]
In short: as §1

[3] = compound: CC[C@H](C)N1C=C(C2=C(C=C(C=C21)C3=CN=C(C=C3)N4CCNCC4)C(=O)NCC5=C(C=C(NC5=O)C)C)C
In short: as §1

[4] = compound: CC[C@H](C)[C@@H](C(=O)N[C@@H]([C@@H](C)O)C(=O)N[C@@H](CC(C)C)C(=O)[C@]1(CO1)C)NC(=O)[C@H]([C@@H](C)CC)N(C)C(=O)C [epoxomicin]
In short: as §1

[5] = compound: CCn1c(C(=O)N(C2CC2)C2CC2)cc2c3c(ncn3C)c(Nc3cc(C)n(C)n3)nc21
In short: as §1

[6] = compound: CCn1cc(-c2ccnc3[nH]c(-c4cccc(CN(C)C)c4)cc23)c(-c2ccc(NC(=O)N(C)C)cc2)n1
In short: as §1

[7] = compound: CN(C)CC(=O)Nc1ccc2[nH]c(=O)c3ccccc3c2c1
In short: as §1

[8] = compound: CN(CCOC1=CC=C(C=C1)C[C@H]2C(=O)NC(=O)S2)C3=CC=CC=N3 (racemic) [rosiglitazone]
In short: as §1

[9] = compound: CN1C2=C(C3=C1C(=O)N(N=C3)CC4=CC(=CC=C4)N)SC(=C2)S(=O)C
In short: as §1

[10] = compound: CN1CCC(CNc2ccc3ncc(-c4cccc(OC(F)(F)F)c4)n3n2)CC1
In short: as §1

Measured: log2 fold change

AAMDC (UniProt Q9H7C9)
inactive: [1] 0.081 | [2] 0.011 | [3] 0.012 | [4] 0.107 | [5] 0.073 | [6] -0.027 | [7] 0.04 | [8] 0.012 | [9] -0.124 | [10] 0.005

ACOT13 (UniProt Q9NPJ3)
inactive: [1] -0.028 | [2] 0.042 | [3] -0.003 | [4] -0.003 | [5] -0.01 | [6] -0.206 | [7] -0.015 | [8] -0.024 | [9] -0.078 | [10] 0.127

ACYP1 (UniProt P07311)
inactive: [1] 0.013 | [2] 0.104 | [3] 0.016 | [4] -0.028 | [5] 0.045 | [6] -0.084 | [7] 0.035 | [8] 0.034 | [9] -0.05 | [10] -0.101

ABCD3 (UniProt P28288)
inactive: [1] 0.049 | [2] 0.092 | [3] 0.008 | [4] -0.033 | [5] -0.026 | [6] -0.02 | [7] 0.073 | [8] 0.035 | [9] -0.03 | [10] 0.094

ACTN1 (UniProt H9KV75)
inactive: [1] 0.013 | [2] -0.116 | [3] -0.105 | [4] 0.015 | [5] -0.103 | [7] -0.039 | [8] -0.073 | [9] -0.078

ACSM3 (UniProt Q53FZ2)
inactive: [1] 0.021 | [2] -0.092 | [3] 0.062 | [4] 0.146 | [6] -0.02 | [7] 0.154 | [9] -0.099 | [10] -0.145

ACSL4 (UniProt O60488)
active: [8] 1.17
inactive: [1] -0.15 | [2] -0.276 | [3] -0.051 | [4] 0.024 | [6] -0.029 | [7] 0.092 | [9] 0.051 | [10] -0.229

ABITRAM (UniProt Q9NX38)
inactive: [1] 0.033 | [2] -0.11 | [3] 0.088 | [4] 0.055 | [6] 0.137 | [7] 0.051 | [9] -0.034 | [10] -0.093
